Experimental data published in paper PMC4301804.
These are yes or no findings as the source states them, for the method shown. In cells and extracts the contact can be indirect. These calls come from enrichment with a bait or labelling near it, and not all partners need be listed. Tags and fused reporters may be left off the sequences shown.

Chains of the proteins cited; added tags and fusions are not shown.
UniProt P14105: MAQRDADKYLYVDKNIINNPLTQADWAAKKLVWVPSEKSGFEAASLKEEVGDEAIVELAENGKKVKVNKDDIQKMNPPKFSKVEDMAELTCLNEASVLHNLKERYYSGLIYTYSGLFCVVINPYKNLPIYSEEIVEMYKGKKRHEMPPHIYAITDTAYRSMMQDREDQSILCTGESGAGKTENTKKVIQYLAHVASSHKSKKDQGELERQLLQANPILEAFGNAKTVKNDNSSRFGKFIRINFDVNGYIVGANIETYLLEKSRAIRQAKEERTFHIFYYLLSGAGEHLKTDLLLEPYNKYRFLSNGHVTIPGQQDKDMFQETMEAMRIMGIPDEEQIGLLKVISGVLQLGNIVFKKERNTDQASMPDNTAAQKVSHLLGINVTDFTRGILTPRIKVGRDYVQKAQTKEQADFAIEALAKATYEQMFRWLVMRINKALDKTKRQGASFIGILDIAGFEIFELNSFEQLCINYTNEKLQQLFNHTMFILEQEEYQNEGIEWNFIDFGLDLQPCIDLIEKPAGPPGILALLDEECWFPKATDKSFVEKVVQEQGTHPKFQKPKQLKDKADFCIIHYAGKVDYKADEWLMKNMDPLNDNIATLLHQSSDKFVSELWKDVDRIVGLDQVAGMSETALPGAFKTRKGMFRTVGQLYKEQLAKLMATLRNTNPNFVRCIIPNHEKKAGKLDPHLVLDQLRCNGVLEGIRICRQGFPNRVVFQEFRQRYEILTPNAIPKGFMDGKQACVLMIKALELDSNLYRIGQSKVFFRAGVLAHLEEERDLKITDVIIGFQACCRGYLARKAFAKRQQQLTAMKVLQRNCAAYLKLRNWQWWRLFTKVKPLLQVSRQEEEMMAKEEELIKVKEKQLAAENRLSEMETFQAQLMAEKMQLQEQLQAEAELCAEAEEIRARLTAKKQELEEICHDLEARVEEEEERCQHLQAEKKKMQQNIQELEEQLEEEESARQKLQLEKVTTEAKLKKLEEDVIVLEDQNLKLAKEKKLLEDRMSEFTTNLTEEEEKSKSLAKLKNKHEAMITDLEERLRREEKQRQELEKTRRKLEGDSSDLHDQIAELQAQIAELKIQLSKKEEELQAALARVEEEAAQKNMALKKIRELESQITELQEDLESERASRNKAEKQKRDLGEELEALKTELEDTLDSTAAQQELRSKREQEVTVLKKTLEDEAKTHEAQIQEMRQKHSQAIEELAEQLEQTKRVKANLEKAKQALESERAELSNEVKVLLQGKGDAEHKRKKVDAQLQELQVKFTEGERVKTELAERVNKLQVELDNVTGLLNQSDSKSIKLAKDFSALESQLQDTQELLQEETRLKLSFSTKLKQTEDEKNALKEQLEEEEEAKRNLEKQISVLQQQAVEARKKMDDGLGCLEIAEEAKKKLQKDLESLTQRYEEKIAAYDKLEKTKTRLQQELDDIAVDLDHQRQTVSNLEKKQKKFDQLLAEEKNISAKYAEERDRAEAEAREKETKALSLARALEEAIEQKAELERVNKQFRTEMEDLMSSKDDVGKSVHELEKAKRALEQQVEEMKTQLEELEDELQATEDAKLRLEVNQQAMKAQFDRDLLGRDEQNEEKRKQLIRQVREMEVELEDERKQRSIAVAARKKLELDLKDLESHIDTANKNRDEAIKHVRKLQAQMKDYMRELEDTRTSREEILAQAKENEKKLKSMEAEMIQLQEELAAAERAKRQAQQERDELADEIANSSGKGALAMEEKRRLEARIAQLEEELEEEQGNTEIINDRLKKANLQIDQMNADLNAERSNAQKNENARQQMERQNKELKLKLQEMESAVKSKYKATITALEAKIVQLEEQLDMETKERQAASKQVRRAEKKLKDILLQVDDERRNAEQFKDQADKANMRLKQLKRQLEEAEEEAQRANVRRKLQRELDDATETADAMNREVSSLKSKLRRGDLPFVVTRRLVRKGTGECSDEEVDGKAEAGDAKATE

Target: T1, 3xFLAG-tagged chicken Thy28 (cThy28; Thymocyte nuclear protein 1), shRNA-resistant silent mutant (chicken) (UniProt Q90679)
T1 sequence: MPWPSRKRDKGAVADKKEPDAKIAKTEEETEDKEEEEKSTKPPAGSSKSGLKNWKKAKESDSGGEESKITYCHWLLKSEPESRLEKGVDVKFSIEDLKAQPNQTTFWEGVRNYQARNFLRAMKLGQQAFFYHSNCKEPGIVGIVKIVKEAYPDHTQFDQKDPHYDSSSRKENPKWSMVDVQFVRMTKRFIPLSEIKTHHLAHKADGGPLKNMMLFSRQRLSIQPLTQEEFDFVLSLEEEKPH
Assay: affinity purification with mass spectrometry; nuclear extracts pre-cleared with normal mouse IgG on Dynabeads-Protein G, then anti-FLAG M2 Ab on Dynabeads-Protein G at 4°C for 2 h; washed with 20 mM Tris pH 8.0, 150 mM NaCl, 25% glycerol, 1.5 mM MgCl2, 0.2 mM EDTA, 0.1% IGEPAL-CA630; eluted with 3xFLAG peptide; SDS-PAGE, silver staining, bands excised for LC-MS/MS

With “myosin-9 (MYH9) (from UniProt P14105 1-1959)” the binding was “binds”.
